Reference: the supplement of paper PMC10849652
Some of the results follow.

Chains of the proteins cited; added tags and fusions are not shown. Lines headed by an entry give the natural chain unless they say otherwise; changes in a name come on top.
UniProt P23443: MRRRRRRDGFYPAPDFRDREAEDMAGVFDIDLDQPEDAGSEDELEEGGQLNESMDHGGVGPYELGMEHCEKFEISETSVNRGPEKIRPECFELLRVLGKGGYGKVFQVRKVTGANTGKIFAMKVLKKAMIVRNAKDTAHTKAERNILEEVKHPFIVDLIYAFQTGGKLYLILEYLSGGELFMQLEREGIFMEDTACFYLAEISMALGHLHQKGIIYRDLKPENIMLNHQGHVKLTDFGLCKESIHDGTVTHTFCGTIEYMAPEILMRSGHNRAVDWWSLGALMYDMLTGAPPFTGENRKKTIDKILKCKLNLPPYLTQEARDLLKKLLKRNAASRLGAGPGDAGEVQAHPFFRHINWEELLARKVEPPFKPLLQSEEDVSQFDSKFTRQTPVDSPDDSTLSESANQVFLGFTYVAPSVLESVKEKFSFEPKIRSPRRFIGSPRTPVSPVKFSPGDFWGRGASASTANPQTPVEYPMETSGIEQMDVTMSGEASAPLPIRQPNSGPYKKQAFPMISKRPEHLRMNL
UniProt Q13464: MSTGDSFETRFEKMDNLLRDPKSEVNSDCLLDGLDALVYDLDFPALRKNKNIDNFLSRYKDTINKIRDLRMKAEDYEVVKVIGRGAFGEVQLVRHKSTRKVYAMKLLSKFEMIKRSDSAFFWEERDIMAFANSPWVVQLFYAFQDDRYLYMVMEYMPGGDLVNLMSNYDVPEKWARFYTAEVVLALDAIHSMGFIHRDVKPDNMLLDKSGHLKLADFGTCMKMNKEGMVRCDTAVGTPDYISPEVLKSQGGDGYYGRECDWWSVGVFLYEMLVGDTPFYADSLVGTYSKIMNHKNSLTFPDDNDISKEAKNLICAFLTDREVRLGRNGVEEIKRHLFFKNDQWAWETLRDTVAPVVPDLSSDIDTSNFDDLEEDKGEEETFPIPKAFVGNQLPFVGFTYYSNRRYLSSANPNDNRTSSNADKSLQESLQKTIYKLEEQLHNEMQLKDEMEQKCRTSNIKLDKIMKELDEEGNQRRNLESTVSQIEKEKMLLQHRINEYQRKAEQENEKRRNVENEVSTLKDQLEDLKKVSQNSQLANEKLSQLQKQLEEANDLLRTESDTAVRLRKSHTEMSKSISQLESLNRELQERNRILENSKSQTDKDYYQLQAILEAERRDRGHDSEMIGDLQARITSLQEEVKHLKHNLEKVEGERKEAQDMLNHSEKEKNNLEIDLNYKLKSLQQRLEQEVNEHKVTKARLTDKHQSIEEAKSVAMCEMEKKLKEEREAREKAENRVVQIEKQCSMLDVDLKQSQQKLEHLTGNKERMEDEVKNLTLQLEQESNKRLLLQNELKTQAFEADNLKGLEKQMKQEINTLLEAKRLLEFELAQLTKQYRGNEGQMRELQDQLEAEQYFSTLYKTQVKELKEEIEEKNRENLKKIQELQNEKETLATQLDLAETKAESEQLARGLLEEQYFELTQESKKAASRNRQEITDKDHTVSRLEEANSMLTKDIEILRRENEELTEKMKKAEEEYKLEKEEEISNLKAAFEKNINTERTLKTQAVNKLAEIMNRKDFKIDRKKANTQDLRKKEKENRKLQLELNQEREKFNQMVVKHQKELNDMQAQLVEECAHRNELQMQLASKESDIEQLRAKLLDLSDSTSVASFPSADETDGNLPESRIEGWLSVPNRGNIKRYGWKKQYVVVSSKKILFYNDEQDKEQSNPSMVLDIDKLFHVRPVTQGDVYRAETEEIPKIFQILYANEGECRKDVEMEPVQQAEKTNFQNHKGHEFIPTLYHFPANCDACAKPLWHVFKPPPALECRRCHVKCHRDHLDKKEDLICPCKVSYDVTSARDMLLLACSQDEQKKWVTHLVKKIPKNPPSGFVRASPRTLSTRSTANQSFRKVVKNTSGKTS
UniProt Q7L523, whole entry, looked up: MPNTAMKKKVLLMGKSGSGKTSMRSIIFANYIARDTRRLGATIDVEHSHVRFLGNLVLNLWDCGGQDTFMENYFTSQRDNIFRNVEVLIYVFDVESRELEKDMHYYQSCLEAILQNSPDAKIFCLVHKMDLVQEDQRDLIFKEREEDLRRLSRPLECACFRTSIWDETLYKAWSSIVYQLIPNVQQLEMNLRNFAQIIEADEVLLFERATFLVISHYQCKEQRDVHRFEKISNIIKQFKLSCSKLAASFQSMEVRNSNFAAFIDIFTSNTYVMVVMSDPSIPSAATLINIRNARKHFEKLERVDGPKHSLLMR
UniProt P10301: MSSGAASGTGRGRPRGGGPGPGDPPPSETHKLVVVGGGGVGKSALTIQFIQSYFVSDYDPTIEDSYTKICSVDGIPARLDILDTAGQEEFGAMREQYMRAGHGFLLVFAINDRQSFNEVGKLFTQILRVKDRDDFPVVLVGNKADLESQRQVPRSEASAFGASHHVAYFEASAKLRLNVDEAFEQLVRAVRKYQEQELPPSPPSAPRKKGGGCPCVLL
UniProt Q92901: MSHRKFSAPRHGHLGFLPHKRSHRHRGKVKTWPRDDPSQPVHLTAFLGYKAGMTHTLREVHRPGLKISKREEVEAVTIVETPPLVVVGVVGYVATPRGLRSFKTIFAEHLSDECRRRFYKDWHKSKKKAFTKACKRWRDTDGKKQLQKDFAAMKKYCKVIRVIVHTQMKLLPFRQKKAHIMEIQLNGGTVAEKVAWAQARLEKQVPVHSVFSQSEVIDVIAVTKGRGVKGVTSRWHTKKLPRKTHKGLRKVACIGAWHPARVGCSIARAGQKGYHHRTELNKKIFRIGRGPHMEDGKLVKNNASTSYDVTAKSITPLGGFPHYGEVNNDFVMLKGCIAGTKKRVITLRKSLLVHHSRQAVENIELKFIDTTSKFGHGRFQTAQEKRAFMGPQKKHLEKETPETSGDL
UniProt Q86WX3: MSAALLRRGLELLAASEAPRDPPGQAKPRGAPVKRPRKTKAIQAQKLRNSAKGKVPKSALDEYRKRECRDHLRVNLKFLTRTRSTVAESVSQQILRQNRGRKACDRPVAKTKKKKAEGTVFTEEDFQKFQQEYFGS
UniProt P78346: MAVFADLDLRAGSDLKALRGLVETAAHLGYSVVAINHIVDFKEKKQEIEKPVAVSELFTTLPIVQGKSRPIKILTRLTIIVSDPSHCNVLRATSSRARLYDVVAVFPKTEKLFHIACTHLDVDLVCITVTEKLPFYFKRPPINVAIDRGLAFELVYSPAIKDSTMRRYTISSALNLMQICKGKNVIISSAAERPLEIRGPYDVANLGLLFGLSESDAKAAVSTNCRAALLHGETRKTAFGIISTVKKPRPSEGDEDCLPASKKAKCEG
UniProt Q8IZ73: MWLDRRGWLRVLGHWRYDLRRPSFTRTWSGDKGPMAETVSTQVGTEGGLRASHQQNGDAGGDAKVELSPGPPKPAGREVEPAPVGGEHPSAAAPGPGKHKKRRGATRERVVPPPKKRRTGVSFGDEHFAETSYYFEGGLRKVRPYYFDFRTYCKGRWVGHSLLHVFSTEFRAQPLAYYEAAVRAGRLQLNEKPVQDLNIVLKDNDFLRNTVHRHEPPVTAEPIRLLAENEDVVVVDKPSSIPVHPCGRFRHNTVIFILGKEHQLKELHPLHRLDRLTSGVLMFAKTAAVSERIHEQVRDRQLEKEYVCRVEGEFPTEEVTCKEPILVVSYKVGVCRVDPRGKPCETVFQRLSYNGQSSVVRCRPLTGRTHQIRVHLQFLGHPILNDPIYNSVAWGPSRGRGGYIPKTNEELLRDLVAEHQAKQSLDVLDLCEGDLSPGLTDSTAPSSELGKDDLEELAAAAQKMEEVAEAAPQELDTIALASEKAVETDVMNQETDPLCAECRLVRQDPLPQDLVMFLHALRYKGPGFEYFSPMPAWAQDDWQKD
UniProt P23921: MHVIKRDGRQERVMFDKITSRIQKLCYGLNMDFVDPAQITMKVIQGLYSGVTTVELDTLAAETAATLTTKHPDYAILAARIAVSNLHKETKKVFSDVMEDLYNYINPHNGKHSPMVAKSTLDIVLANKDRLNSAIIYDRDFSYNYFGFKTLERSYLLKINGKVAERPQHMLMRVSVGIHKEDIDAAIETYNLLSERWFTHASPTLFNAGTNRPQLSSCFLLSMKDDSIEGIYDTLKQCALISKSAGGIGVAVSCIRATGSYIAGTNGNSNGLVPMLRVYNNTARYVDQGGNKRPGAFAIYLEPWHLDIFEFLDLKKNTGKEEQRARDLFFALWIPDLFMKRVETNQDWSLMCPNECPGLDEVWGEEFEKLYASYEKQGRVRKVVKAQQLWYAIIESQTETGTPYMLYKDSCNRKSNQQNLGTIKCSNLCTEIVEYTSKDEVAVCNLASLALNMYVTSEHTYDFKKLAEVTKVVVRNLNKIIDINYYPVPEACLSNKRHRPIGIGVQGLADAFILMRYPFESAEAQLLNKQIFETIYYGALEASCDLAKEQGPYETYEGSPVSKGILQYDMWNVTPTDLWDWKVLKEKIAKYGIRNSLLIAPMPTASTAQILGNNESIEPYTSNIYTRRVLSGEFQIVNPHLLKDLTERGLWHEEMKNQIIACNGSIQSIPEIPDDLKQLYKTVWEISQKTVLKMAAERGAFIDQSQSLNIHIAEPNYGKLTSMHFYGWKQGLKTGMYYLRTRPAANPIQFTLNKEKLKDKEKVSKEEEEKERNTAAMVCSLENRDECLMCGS
UniProt P05387, whole entry, looked up: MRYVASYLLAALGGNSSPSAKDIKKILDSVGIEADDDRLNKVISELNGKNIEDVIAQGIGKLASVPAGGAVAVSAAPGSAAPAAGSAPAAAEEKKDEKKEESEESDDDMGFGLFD
UniProt Q8N5L8: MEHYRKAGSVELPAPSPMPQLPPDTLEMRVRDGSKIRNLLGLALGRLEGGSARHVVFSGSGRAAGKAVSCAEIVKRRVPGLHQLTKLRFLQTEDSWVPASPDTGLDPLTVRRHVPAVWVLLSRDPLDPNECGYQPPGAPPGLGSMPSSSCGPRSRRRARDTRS
UniProt Q9H4P4: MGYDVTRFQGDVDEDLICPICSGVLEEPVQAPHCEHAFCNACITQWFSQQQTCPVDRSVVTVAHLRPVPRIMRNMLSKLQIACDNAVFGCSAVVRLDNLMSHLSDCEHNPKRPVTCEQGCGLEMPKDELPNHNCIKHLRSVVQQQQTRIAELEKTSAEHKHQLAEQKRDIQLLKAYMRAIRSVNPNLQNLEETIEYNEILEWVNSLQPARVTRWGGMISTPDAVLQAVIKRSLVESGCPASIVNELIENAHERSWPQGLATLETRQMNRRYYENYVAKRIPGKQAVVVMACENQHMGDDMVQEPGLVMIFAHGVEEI
UniProt Q9BUL9: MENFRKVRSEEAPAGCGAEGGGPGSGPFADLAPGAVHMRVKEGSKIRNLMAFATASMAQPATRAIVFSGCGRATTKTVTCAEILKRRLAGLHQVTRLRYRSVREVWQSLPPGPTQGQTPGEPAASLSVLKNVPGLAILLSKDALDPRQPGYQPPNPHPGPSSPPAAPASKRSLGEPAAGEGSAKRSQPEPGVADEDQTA

What was measured:
Experiment in all cases: log2 fold change, soluble protein after heating vs DMSO (PISA); higher = thermal stabilisation; K562 cells, 10 uM, 30 min; active = over 0.2 and 3.5 SD of the protein, either way, in both replicates (recomputed)
bafetinib = compound: Cc1ccc(NC(=O)c2ccc(CN3CC[C@H](N(C)C)C3)c(C(F)(F)F)c2)cc1Nc1nccc(-c2cncnc2)n1 [bafetinib]
Method in brief: (§1)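 Soluble protein was quantified by TMTpro 16plex LC-MS/MS after channel sums were equalised. It was obtained as the supernatant after 21,000xg for 90 min from pooled aliquots of K562 cells (2×10^6 cells/mL, 10 μM compound, 30 min) heated for 3 min across 48°C-58°C and extracted in PBS with 0.5% NP-40 at 4°C. Thermal stability values are relative to control samples and come from duplicates. They are given as log2 fold changes.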

[1] = compound: Cc1cccc(CC(=O)N2CCc3c2ccc(-c2cn(C)c4ncnc(N)c24)c3F)n1
Method in brief: as §1

nilotinib = compound: Cc1cn(-c2cc(NC(=O)c3ccc(C)c(Nc4nccc(-c5cccnc5)n4)c3)cc(C(F)(F)F)c2)cn1 [nilotinib]
Method in brief: as §1

[2] = compound: Cc1nc(Nc2n[nH]c3c2CN(C(=O)N[C@H](CN(C)C)c2ccccc2)C3(C)C)c2sccc2n1
Method in brief: as §1

dasatinib = compound: Cc1nc(Nc2ncc(C(=O)Nc3c(C)cccc3Cl)s2)cc(N2CCN(CCO)CC2)n1 [dasatinib]
Method in brief: as §1

[3] = compound: Cc1ncc(-c2ccnc(Nc3ccc(S(C)(=O)=O)cc3)n2)n1C(C)C
Method in brief: as §1

[4] = compound: Cn1cc(-c2ccc3c(c2)CCN3C(=O)Cc2cccc(C(F)(F)F)c2)c2c(N)ncnc21
Method in brief: as §1

[5] = compound: Cn1cc(-c2ccc3nnc(C(F)(F)c4ccc5ncccc5c4)n3n2)cn1
Method in brief: as §1

tipifarnib = compound: Cn1cncc1[C@@](N)(c1ccc(Cl)cc1)c1ccc2c(c1)c(-c1cccc(Cl)c1)cc(=O)n2C [tipifarnib]
Method in brief: as §1

mubritinib = compound: FC(F)(F)c1ccc(/C=C/c2nc(COc3ccc(CCCCn4ccnn4)cc3)co2)cc1 [mubritinib]
Method in brief: as §1

Measured: log2 fold change

RPS20 isoform 2 (UniProt P60866)
inactive: bafetinib 0.178 | [1] -0.005 | nilotinib -0.006 | [2] 0.223 | dasatinib 0.05 | [3] -0.071 | [4] -0.078 | [5] -0.008 | tipifarnib 0.094 | mubritinib -0.059

RPS6KB1 (UniProt P23443)
inactive: bafetinib -0.033 | [1] 0.009 | nilotinib -0.01 | [2] -0.053 | dasatinib -0.068 | [3] -0.017 | [4] 0.065 | [5] -0.008 | tipifarnib -0.061 | mubritinib 0.033

RPL36A (UniProt P83881)
inactive: bafetinib 0.386 | [1] -0.001 | nilotinib -0.013 | [2] 0.112 | dasatinib 0.173 | [3] -0.07 | [4] -0.325 | [5] -0.174 | tipifarnib 0.222 | mubritinib -0.255

RPL8 (UniProt P62917)
inactive: bafetinib 0.54 | [1] -0.001 | nilotinib -0.028 | [2] 0.242 | dasatinib 0.334 | [3] -0.046 | [4] -0.532 | [5] -0.232 | tipifarnib 0.382 | mubritinib -0.372

ROCK1 (UniProt Q13464)
inactive: bafetinib -0.017 | [1] -0.006 | nilotinib -0.03 | [2] 0.007 | dasatinib -0.028 | [3] 0.034 | [4] -0.006 | [5] 0.01 | tipifarnib -0.037 | mubritinib 0.062

RPL28 (UniProt P46779)
inactive: bafetinib 0.538 | [1] 0.017 | nilotinib 0.021 | [2] 0.263 | dasatinib 0.354 | [3] -0.074 | [4] -0.544 | [5] -0.27 | tipifarnib 0.326 | mubritinib -0.341

RPS21 (UniProt P63220)
inactive: bafetinib 0.087 | [1] -0.057 | nilotinib 0.011 | [2] 0.072 | dasatinib 0.1 | [3] -0.012 | [4] -0.009 | [5] -0.004 | tipifarnib 0.017 | mubritinib 0.002

RRAGA (UniProt Q7L523)
inactive: bafetinib -0.011 | [1] 0.097 | nilotinib 0.033 | [2] 0.024 | dasatinib -0.133 | [3] -0.051 | [4] 0.053 | [5] 0.055 | tipifarnib 0.142 | mubritinib -0.02

RRAS (UniProt P10301)
inactive: bafetinib 0.008 | [1] -0.004 | nilotinib 0.019 | [2] -0.071 | dasatinib 0.047 | [3] -0.018 | [4] 0.042 | [5] 0.037 | tipifarnib 0 | mubritinib 0.034

RPL3 (UniProt P39023)
inactive: bafetinib 0.574 | [1] -0.001 | nilotinib 0.009 | [2] 0.305 | dasatinib 0.362 | [3] -0.04 | [4] -0.586 | [5] -0.258 | tipifarnib 0.369 | mubritinib -0.361

RPL3L (UniProt Q92901)
inactive: bafetinib 0.589 | [1] -0.001 | nilotinib -0.06 | [2] 0.272 | dasatinib 0.31 | [3] -0.04 | [4] -0.455 | [5] -0.231 | tipifarnib 0.387 | mubritinib -0.422

RPL18A (UniProt Q02543)
inactive: bafetinib 0.549 | [1] 0.016 | nilotinib 0.01 | [2] 0.272 | dasatinib 0.352 | [3] -0.053 | [4] -0.618 | [5] -0.192 | tipifarnib 0.478 | mubritinib -0.346

RPL4 (UniProt P36578)
inactive: bafetinib 0.611 | [1] -0.001 | nilotinib -0.004 | [2] 0.227 | dasatinib 0.261 | [3] -0.045 | [4] -0.609 | [5] -0.304 | tipifarnib 0.427 | mubritinib -0.327

RPS19BP1 (UniProt Q86WX3)
inactive: bafetinib 0.065 | [1] -0.023 | nilotinib 0.008 | [2] 0.193 | dasatinib 0.142 | [3] -0.027 | [4] -0.278 | [5] -0.126 | tipifarnib 0.154 | mubritinib -0.16

RPS15A (UniProt P62244)
inactive: bafetinib 0.369 | [1] 0.011 | nilotinib 0.039 | [2] 0.25 | dasatinib 0.097 | [3] -0.058 | [4] -0.293 | [5] -0.103 | tipifarnib 0.051 | mubritinib -0.132

RPP30 isoform 2 (UniProt P78346)
inactive: bafetinib -0.039 | [1] -0.024 | nilotinib 0.039 | [2] -0.017 | dasatinib 0.135 | [3] 0.009 | [4] -0.046 | [5] -0.022 | tipifarnib 0.036 | mubritinib 0.016

RPUSD2 (UniProt Q8IZ73)
inactive: bafetinib 0.007 | [1] -0.028 | nilotinib 0.025 | [2] 0.028 | dasatinib 0.001 | [3] -0.022 | [4] 0.004 | [5] -0.01 | tipifarnib 0.034 | mubritinib 0.001

RPS13 (UniProt P62277)
inactive: bafetinib 0.342 | [1] 0 | nilotinib 0.017 | [2] 0.221 | dasatinib 0.088 | [3] -0.051 | [4] -0.237 | [5] -0.089 | tipifarnib 0.204 | mubritinib -0.184

RPS12 (UniProt P25398)
inactive: bafetinib 0.112 | [1] 0.006 | nilotinib 0.002 | [2] 0.126 | dasatinib 0.08 | [3] -0.012 | [4] -0.013 | [5] -0.004 | tipifarnib 0.049 | mubritinib -0.08

RPL39P5 (UniProt Q59GN2)
inactive: bafetinib 0.309 | [1] -0.046 | nilotinib 0.006 | [2] 0.129 | dasatinib 0.139 | [3] -0.026 | [4] -0.488 | [5] -0.128 | tipifarnib 0.056 | mubritinib -0.165

RRM1 (UniProt P23921)
inactive: bafetinib -0.03 | [1] -0.013 | nilotinib 0.018 | [2] -0.009 | dasatinib -0.052 | [3] -0.002 | [4] 0.033 | [5] -0.007 | tipifarnib -0.064 | mubritinib 0

RPLP2 (UniProt P05387)
inactive: bafetinib 0.346 | [1] -0.001 | nilotinib 0.002 | [2] 0.206 | dasatinib 0.138 | [3] -0.048 | [4] -0.417 | [5] -0.203 | tipifarnib 0.242 | mubritinib -0.272

RPS26 (UniProt P62854)
inactive: bafetinib 0.424 | [1] 0.01 | nilotinib -0.003 | [2] 0.285 | dasatinib 0.179 | [3] -0.064 | [4] -0.411 | [5] -0.219 | tipifarnib 0.211 | mubritinib -0.178

RPP25L (UniProt Q8N5L8)
inactive: bafetinib 0.143 | [1] -0.04 | nilotinib 0.044 | [2] -0.087 | dasatinib 0.09 | [3] -0.031 | [4] -0.058 | [5] 0.004 | tipifarnib 0.044 | mubritinib -0.004

RNF41 (UniProt Q9H4P4)
inactive: bafetinib -0.09

RPP25 (UniProt Q9BUL9)
inactive: bafetinib 0.006 | [1] 0.098 | nilotinib 0.132 | [2] -0.096 | dasatinib -0.001 | [3] -0.06 | [4] 0 | [5] 0.006 | tipifarnib 0.016 | mubritinib 0.055

RPS2 (UniProt P15880)
inactive: bafetinib 0.284 | [1] 0 | nilotinib 0 | [2] 0.198 | dasatinib 0.13 | [3] -0.035 | [4] -0.216 | [5] -0.105 | tipifarnib 0.077 | mubritinib -0.095

RPS27 (UniProt P42677)
inactive: bafetinib 0.062 | [1] 0.018 | nilotinib -0.024 | [2] 0.102 | dasatinib -0.072 | [3] -0.022 | [4] -0.054 | [5] -0.105 | tipifarnib 0.027 | mubritinib -0.057
